# From the supplement of paper PMC8104966
# The other results are listed elsewhere or left out. Repeats in this data set agree poorly, so a single value says little.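 U2OS cells carrying ACE2 were mixed with U2OS cells carrying full-length spike, and fusion was scored by imaging as the share of nuclei showing both cell types' fluorescent markers. A compound counts as an inhibitory hit when it is non-toxic and its fusion z-score falls below -3, meaning more than three standard deviations below the plate's DMSO wells.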
# System: U2OS ACE2 x SARS-CoV-2 spike co-culture
# Test: cell-cell fusion (fraction fused) z-score vs plate DMSO control; higher = more fusion
# Conditions: 30 µM; 5 h; toxicity class: non-toxic, passed QC
row,Compound,cell-cell fusion (z-score)
1,COC1=C(OC)C(=O)C(CCCCCCCCCCO)=C(C)C1=O,inactive: 0.882
2,"Cl.c1ccc(CN2CCC3(CCCc4ccccc43)CC2)cc1 [L-687,384 hydrochloride]",inactive: 3.28
3,Cc1nc2sccn2c(=O)c1CCN1CCC(=C(c2ccc(F)cc2)c2ccc(F)cc2)CC1,inactive: 1.8
4,Cc1nc2sccn2c(=O)c1CCN1CCC(=C(c2ccc(F)cc2)c2ccc(F)cc2)CC1 [Ritanserin],active: -16.4
5,CO/N=C(/C(=O)NC1C(=O)N2C(C(=O)O)=C(CSc3nnnn3C)CSC12)c1csc(N)n1.Cl (configuration not stated),inactive: 2.04
6,NCCOB(c1ccccc1)c1ccccc1,inactive: 2.66
7,Cc1cnc(C(=O)N[C@H]2CCCCC/C=C\[C@@H]3C[C@@]3(C(=O)NS(=O)(=O)C3CC3)NC(=O)[C@@H]3C[C@@H](Oc4nc5ccccc5c5ccccc45)CN3C2=O)cn1 [Paritaprevir],inactive: 4.22
8,CN[C@@H]1[C@H](O[C@H]2[C@H](O[C@H]3[C@H](O)[C@@H](O)[C@H](NC(=N)N)[C@@H](O)[C@@H]3NC(=N)N)O[C@@H](C)[C@]2(O)C=O)O[C@@H](CO)[C@H](O)[C@H]1O.CN[C@@H]1[C@H](O[C@H]2[C@H](O[C@H]3[C@H](O)[C@@H](O)[C@H](NC(=N)N)[C@@H](O)[C@@H]3NC(=N)N)O[C@@H](C)[C@]2(O)C=O)O[C@@H](CO)[C@H](O)[C@H]1O.O=S(=O)(O)O.O=S(=O)(O)O.O=S(=O)(O)O [Streptomycin sulfate],inactive: 3.76
9,CC[C@H]1OC(=O)[C@H](C)[C@@H](O[C@H]2C[C@@](C)(OC)[C@@H](O)[C@H](C)O2)[C@H](C)[C@@H](O[C@@H]2O[C@H](C)C[C@H](N(C)C)[C@H]2O)[C@](C)(O)C[C@@H](C)[C@@H]2N[C@@H](COCCOC)O[C@H]([C@H]2C)[C@]1(C)O [Dirithromycin],inactive: 1.99
10,CC[C@H]1OC(=O)[C@H](C)[C@@H](O[C@H]2C[C@@](C)(OC)[C@@H](O)[C@H](C)O2)[C@H](C)[C@@H](O[C@@H]2O[C@H](C)C[C@H](N(C)C)[C@H]2O)[C@](C)(O)C[C@@H](C)[C@@H]2N[C@@H](COCCOC)O[C@H]([C@H]2C)[C@]1(C)O,inactive: 3.41
11,O=P([O-])(O)C(O)(Cc1cccnc1)P(=O)(O)O.[Na+] [Risedronate Sodium],inactive: 3.15
12,C=CC(N)CCC(=O)O (racemic) [(±)-gamma-Vinyl GABA],inactive: 1.76
13,CC(COc1ccccc1)N(CCCl)Cc1ccccc1.Cl (configuration not stated),inactive: 3.26
14,Cc1c(OCC(F)(F)F)ccnc1CS(=O)c1nc2ccccc2[nH]1 (configuration not stated),inactive: 2.66
15,CC1=C(C(=O)O)N2C(=O)[C@@H](N)[C@H]2SC1 [Cefalexine EP IMpurity B],inactive: 0.701
16,CC1(C)C(=O)[C@@H]2C[C@@]3(O)C4=CC(=O)O[C@@H](c5ccoc5)[C@]4(C)CCC3[C@@](C)(C2=O)[C@H]1CC(=O)O (some centres not stated),inactive: 2.18
17,Oc1ccc2ccccc2c1SSc1c(O)ccc2ccccc12,active: -6.24
18,CN(C)CCC(c1ccc(Br)cc1)c1ccccn1.O=C(O)/C=C\C(=O)O (racemic) [(±)-Brompheniramine maleate],inactive: 2.66
19,CCOC(=O)c1ccc(N)cc1,inactive: 1.21

row,Compound,cell-cell fusion (z-score)
1,O=[N+]([O-])c1ccc([As](=O)(O)O)cc1,inactive: 1.51
2,CC(C)OC(=O)OCOP(=O)(COC(C)Cn1cnc2c(N)ncnc21)OCOC(=O)OC(C)C (configuration not stated) [Tenofovir Disoproxil],inactive: 1.18
3,CCCOc1ccc(C(=O)OCCN(CC)CC)cc1N.Cl [Proparacaine hydrochloride],inactive: 2.02
4,CC1(C)S[C@@H]2[C@H](NC(=O)C(C(=O)[O-])c3ccsc3)C(=O)N2[C@H]1C(=O)[O-].[Na+].[Na+] (some centres not stated) [Ticarcillin disodium],inactive: 2.38
5,CC1(C)C(=O)C=C[C@@]2(C)C1CC(=O)[C@]1(C)C2CC[C@@]2(C)[C@H](c3ccoc3)OC(=O)[C@H]3O[C@]321 (some centres not stated),inactive: 0.538
6,CCC(=O)OCC(=O)[C@@]1(OC(=O)CC)[C@@H](C)C[C@H]2[C@@H]3CCC4=CC(=O)C=C[C@]4(C)[C@@]3(Cl)[C@@H](O)C[C@@]21C [Beclomethasone dipropionate],inactive: -1.86
7,Cc1ccccc1-n1c(Cn2cnc3c(N)ncnc32)nc2cccc(C)c2c1=O,inactive: 0.263
8,COc1cc([C@H]2Oc3cc([C@H]4Oc5cc(O)cc(O)c5C(=O)[C@@H]4O)ccc3O[C@@H]2CO)ccc1O,inactive: 1.42
9,N[C@H](C(=O)O)[C@H](O)c1ccc(O)c(O)c1,inactive: 2.64
10,COc1cc(/C=C/C(=O)O)ccc1O,inactive: 1.84
11,Cc1ccc(S(=O)(=O)O)cc1.NC(=O)c1cccc2cn(-c3ccc([C@@H]4CCCNC4)cc3)nc12 [Niraparib tosylate],inactive: -0.167
12,Cl.Clc1ccc2nsnc2c1NC1=NCCN1 [Tizanidine hydrochloride],inactive: 0.723
13,Brc1c(NC2=NCCN2)ccc2nccnc12.O=C(O)[C@H](O)[C@@H](O)C(=O)O [Brimonidine Tartrate],inactive: 2.22
14,CC(=O)[C@@]12O[C@](C)(c3ccccc3)O[C@@H]1CC1C3CCC4=CC(=O)CC[C@]4(C)C3CC[C@@]12C (some centres not stated),inactive: 4.14
15,CC1Cc2ccccc2N1NC(=O)c1ccc(Cl)c(S(N)(=O)=O)c1 (configuration not stated) [Indapamide],inactive: 0.188
16,CNCCc1ccccn1.Cl.Cl,inactive: 2.83
17,O=C(O)CCC(=O)O.c1ccc(C2(c3ccccc3)CC2C2=NCCN2)cc1 (configuration not stated) [Cibenzoline succinate],inactive: 2.17
18,C[C@H](CCC(=O)NCC(=O)O)[C@H]1CCC2C3C(C[C@H](O)[C@@]21C)[C@@]1(C)CC[C@@H](O)CC1C[C@H]3O (some centres not stated),inactive: 2.22

# An excerpt of the results above:
row,Compound,cell-cell fusion (z-score)
5,CC1(C)C(=O)C=C[C@@]2(C)C1CC(=O)[C@]1(C)C2CC[C@@]2(C)[C@H](c3ccoc3)OC(=O)[C@H]3O[C@]321 (some centres not stated),inactive: 0.538
6,CCC(=O)OCC(=O)[C@@]1(OC(=O)CC)[C@@H](C)C[C@H]2[C@@H]3CCC4=CC(=O)C=C[C@]4(C)[C@@]3(Cl)[C@@H](O)C[C@@]21C [Beclomethasone dipropionate],inactive: -1.86
